From the supplement of paper PMC10338343 come the findings set out here.

± gives the standard deviation. This is a selection; strong and weak results do not stand in their true shares. Many of these values have a large error. Bounds are passed on as bounds.

Assay [1] relates to MILI (PIWIL2) piRISC loaded with piRNA #1 (26 nt). The assay is described as follows: pre-steady-state target cleavage rate (min^-1); higher = faster piRNA-guided slicing of the target. The settings on record: guide: piRNA #1 5'p-UGAGGUAGUAGGUUGUAUAGUAUCCA; auxiliary factor: 500 nM mouse GTSF1. In short, it runs like this:
(§1)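 The pre-steady-state cleavage rate came from a burst-and-steady-state fit to pooled data from three Cleave-'n-Seq trials, in which uncleaved targets were sequenced and normalised to depth and to weakly complementary targets. Each reaction held 0.1 nM transcribed, DNA-blocked target RNA library and 1 nM active affinity-purified piRISC carrying one synthetic guide, with or without 500 nM GTSF1 partner protein, in HEPES–potassium acetate buffer at 33 °C for 0–8 or 0–960 min. k3 was capped at 0.0001 min^-1.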

Assay [2] concerns EfPiwi piRISC loaded with piRNA #1 (26 nt). In words: pre-steady-state target cleavage rate (min^-1); guide: piRNA #1 5'p-UGAGGUAGUAGGUUGUAUAGUAUCCA; MIWI and MILI are mouse PIWI proteins and EfPiwi is from a freshwater sponge; tags in brackets are library labels; higher = faster piRNA-guided slicing of the target. The settings on record: auxiliary factor: 500 nM Ephydatia muelleri Gtsf1. An outline of the steps: as §1

For the sequence GGAGACCUUACUAUACAACCUUCUAGCUCA, the “pre-steady-state target cleavage rate” value worked out at 0.00187 ± 0.0035 in assay [1] and 0.00214 ± 0.0053 in assay [2].

Take GGAGACCUAUGAUAACAACGAUCUACCUCA: the “pre-steady-state target cleavage rate” value in assay [1] is 0.000541 ± 0.012; in assay [2], 0.000828 ± 0.0072.

Consider GGAGACCUAACUAUACUAACCUACUACCUCA, for which the figures for the “pre-steady-state target cleavage rate” value in assay [1] and in assay [2] were 0.000375 ± 0.033 and 0.0037 ± 0.0043, respectively.

GGAGACCUAUGUAUACAACCUAGUACCACA: the entries for the “pre-steady-state target cleavage rate” value in assay [1] and in assay [2] were 0.00245 ± 0.0032 and 0.00174 ± 0.0049, respectively.

As for GGAGACAAUACUAUACAACCUACUACCUCA, the “pre-steady-state target cleavage rate” value is 0.253 ± 0.021 in assay [1] and 0.0606 ± 0.023 in assay [2].

Consider GGAGAGGAUACUAUAGAACCAACUACCUCA, for which the “pre-steady-state target cleavage rate” value was 0.00161 ± 0.0043 in assay [1] and 0.0016 ± 0.002 in assay [2].

Turning to “GGAGAGGAUACUAUACAACCUACUACCUCU [g2:g25:cont:t1U]”, the “pre-steady-state target cleavage rate” value in assay [1] amounted to 0.238 ± 0.025; in assay [2], 1.56 ± 0.47.

With GGAGACCUUACUAUACAACCUACUUGCUCA, the “pre-steady-state target cleavage rate” value in assay [1] is 0.098 ± 0.021; in assay [2] it was 0.00263 ± 0.0043.

In the case of GGAGACCUUACAAUACAACCUAGUACCUCA, the “pre-steady-state target cleavage rate” value in assay [1] is 0.043 ± 0.013; in assay [2], 0.00138 ± 0.0035.

Take GGAGACGUAACUAUACAACCUACUACCUCA: the results for the “pre-steady-state target cleavage rate” value in assay [1] and in assay [2] were 0.166 ± 0.018 and 0.0248 ± 0.0098, respectively.

As to GGAGACCUAUGUGUACAACCUACUACCUCA, the “pre-steady-state target cleavage rate” value in assay [1] is 0.0178 ± 0.0035; in assay [2] it was 0.00301 ± 0.0033.

With GGAGACCAUACUAUACAACCUACGUACCUCA, the “pre-steady-state target cleavage rate” value in assay [1] stood at 0.11 ± 0.018; in assay [2] it was 0.00254 ± 0.0023.

As to GGAGUGGAUACUAUACAACCUACUACCGCA, the entries for the “pre-steady-state target cleavage rate” value in assay [1] and in assay [2] were 0.0694 ± 0.0095 and 0.00573 ± 0.002, respectively.

As for GGAGACCAUACAAUACAACCUACAACCUCA, the results for the “pre-steady-state target cleavage rate” value in assay [1] and in assay [2] were 0.136 ± 0.014 and 0.00403 ± 0.0047, respectively.

In the case of GGAGACCAUAGUAUACAACCAACUACCUCA, the “pre-steady-state target cleavage rate” value in assay [1] was found to be 0.00718 ± 0.0021; in assay [2], 0.00183 ± 0.0062.

Take GGAGACCUAUGUAUACAACCUACUCCCUCA: the “pre-steady-state target cleavage rate” value was found to be 0.0316 ± 0.0063 in assay [1] and 0.0021 ± 0.0042 in assay [2].

For GGAGACCUAUGAUAUGUACCUUCUACCUCA, the “pre-steady-state target cleavage rate” value turned out to be 0.000128 ± 0.019 in assay [1] and 0.000205 ± 0.0088 in assay [2].

Regarding GGAGACCUAAUCUAUACAACCUACUACCUCA, the results for the “pre-steady-state target cleavage rate” value in assay [1] and in assay [2] were 0.11 ± 0.024 and 0.297 ± 0.099, respectively.

As for GGAGACCUAUGAAUACAACCUAGUAGCUCA, the “pre-steady-state target cleavage rate” value in assay [1] is 0.000494 ± 0.008; in assay [2], 0.00199 ± 0.0053.

Turning to GGAGACGAUCACUAUACAACCUACUACCUCA, the “pre-steady-state target cleavage rate” value worked out at 0.131 ± 0.019 in assay [1] and 0.0768 ± 0.029 in assay [2].

GGAGACCUAUGAUAACAACCUACUACGUGA: the figures for the “pre-steady-state target cleavage rate” value in assay [1] and in assay [2] were 0.000639 ± 0.011 and 0.000874 ± 0.0081, respectively.

On to GGAGACCAUACUAUACAACCUUCUAGCUCA, for which the “pre-steady-state target cleavage rate” value turned out to be 0.00217 ± 0.0047 in assay [1] and 0.00404 ± 0.0045 in assay [2].

Regarding GGAGACCUUACAAUACAACCUUCUACCUCA, the entries for the “pre-steady-state target cleavage rate” value in assay [1] and in assay [2] were 0.00687 ± 0.0029 and 0.0017 ± 0.0053, respectively.

Regarding GGAGUGGAUACUAUACAACCUACUUGCUCA, the “pre-steady-state target cleavage rate” value in assay [1] amounted to 0.00138 ± 0.0041; in assay [2], 0.0047 ± 0.0026.

Consider “GGAGACCUAUGAUUACAACCUUGAUGGAGA [g10:g17:cont:t1A]”, for which the “pre-steady-state target cleavage rate” value in assay [1] stood at 0.000124 ± 0.02; in assay [2], 0.00011 ± 0.028.

For the sequence GGAGACCUAUGAUAUGUUGCUUCUUCCUCA, the “pre-steady-state target cleavage rate” value in assay [1] was 0.000113 ± 0.019; in assay [2], 0.000218 ± 0.012.

Take GGAGACCUAUGUUUACAACCUUCUACCUCA: the “pre-steady-state target cleavage rate” value in assay [1] was determined as 0.00358 ± 0.0029; in assay [2], 0.000855 ± 0.0065.

For GGAGACGAUACUAUACAACCUAGUAGCUCA, the “pre-steady-state target cleavage rate” value in assay [1] stood at 0.00097 ± 0.0088; in assay [2], 0.00474 ± 0.0023.

Turning to GGAGAGGAUACAAUACAACGUACUACCUCA, the “pre-steady-state target cleavage rate” value in assay [1] was found to be 0.0139 ± 0.003; in assay [2] it was 0.00326 ± 0.002.

For the sequence GGAGAGGAUACUAUACAACCUACUCCUCA, the “pre-steady-state target cleavage rate” value came out at 0.00213 ± 0.0025 in assay [1] and 0.00473 ± 0.0025 in assay [2].

Take GGAGUGCAUACUAUUCAACCUACUACCUCA: the figures for the “pre-steady-state target cleavage rate” value in assay [1] and in assay [2] were 0.182 ± 0.011 and 0.00471 ± 0.0042, respectively.

For the sequence GGAGACCUAUGUAUAGAACCUACUACCUGA, the “pre-steady-state target cleavage rate” value in assay [1] turned out to be 0.00583 ± 0.0025; in assay [2], 0.000649 ± 0.0092.

For the sequence GGAGUGGAUACUAUACAACCUUGAACCUCA, the entries for the “pre-steady-state target cleavage rate” value in assay [1] and in assay [2] were 0.000195 ± 0.012 and 0.00462 ± 0.0029, respectively.

As for GGAGACCUAACUAUACAUCCUACUACGUCA, the entries for the “pre-steady-state target cleavage rate” value in assay [1] and in assay [2] were 0.173 ± 0.052 and 0.00262 ± 0.0033, respectively.

Regarding “GGAGACCUAUGAUAUCAACCUAGAUGGAGA [g9:g15:cont:t1A]”, the results for the “pre-steady-state target cleavage rate” value in assay [1] and in assay [2] were 0.000695 ± 0.0064 and 0.000714 ± 0.0071, respectively.

On to GGAGACCUUAGUAUACAACCUUCUACCUCA, for which the “pre-steady-state target cleavage rate” value in assay [1] is 0.00489 ± 0.0033; in assay [2] it was 0.000906 ± 0.005.

Regarding GGAGACCUAUGAUAAGAACCUUCUACCUCA, the “pre-steady-state target cleavage rate” value in assay [1] amounted to 0.000257 ± 0.012; in assay [2], 0.00014 ± 0.017.

Consider GGAGUGGAUACUAUACAACCUUCUACGUCA, for which the “pre-steady-state target cleavage rate” value in assay [1] was found to be 0.00135 ± 0.0039; in assay [2], 0.00426 ± 0.0016.

Consider GGAGACGAUACUAUACAACCUACAACCUCA, for which the figures for the “pre-steady-state target cleavage rate” value in assay [1] and in assay [2] were 0.142 ± 0.019 and 0.00407 ± 0.0013, respectively.

As to GGAGACCAUACUAUACAACUUACUACCUCA, the “pre-steady-state target cleavage rate” value in assay [1] is 0.0165 ± 0.0023; in assay [2], 0.00338 ± 0.0027.

Turning to GGAGACCUUACUAUACAUCCUACAACCUCA, the entries for the “pre-steady-state target cleavage rate” value in assay [1] and in assay [2] were 0.214 ± 0.019 and 0.00333 ± 0.0044, respectively.

For GGAGACCAUACUAUACAACCAUCUACCUCA, the figures for the “pre-steady-state target cleavage rate” value in assay [1] and in assay [2] were 0.00204 ± 0.005 and 0.00166 ± 0.0026, respectively.

In the case of GGAGACCUAUGAUAUGUGCCUACUACCUCA, the “pre-steady-state target cleavage rate” value in assay [1] is less than 0.0001; in assay [2] it was 0.000575 ± 0.0083.

In the case of GGAGACCAUACUUUACAACCUAGUACCUCA, the “pre-steady-state target cleavage rate” value in assay [1] was found to be 0.119 ± 0.025; in assay [2], 0.00535 ± 0.0043.

In the case of GGAGACCUAUGAAUACAACACUACUACCUCA, the “pre-steady-state target cleavage rate” value turned out to be 0.000449 ± 0.015 in assay [1] and 0.000564 ± 0.0092 in assay [2].

With GGAGACCAUACUAAACAAGCUACUACCUCA, the “pre-steady-state target cleavage rate” value in assay [1] came out at 0.236 ± 0.018; in assay [2], 0.000515 ± 0.006.

Take GGAGUGGAUACUAUUCAACCUACUACCACA: the “pre-steady-state target cleavage rate” value was determined as 0.093 ± 0.0098 in assay [1] and 0.00327 ± 0.0022 in assay [2].

Take GGAGUGGAUACUAUACAACCUUACUACCUCA: the entries for the “pre-steady-state target cleavage rate” value in assay [1] and in assay [2] were 0.00105 ± 0.0038 and 0.00695 ± 0.0034, respectively.

As to GGAGACCUAUGAUAUGAACCUACUACCUCA, the “pre-steady-state target cleavage rate” value in assay [1] turned out to be 0.000409 ± 0.0086; in assay [2], 0.0007 ± 0.007.

With GGAGACCUAACUAUACAACCUAGUACCACA, the results for the “pre-steady-state target cleavage rate” value in assay [1] and in assay [2] were 0.00434 ± 0.0056 and 0.00588 ± 0.0049, respectively.

Regarding GGAGACCAUACUAUACAACCUAGUACCUGA, the “pre-steady-state target cleavage rate” value was found to be 0.00189 ± 0.0048 in assay [1] and 0.00278 ± 0.0021 in assay [2].

As to “GGAGACCUAUGAUAUGUACCUACUAGGAGA [g6:g13:cont:t1A]”, the “pre-steady-state target cleavage rate” value in assay [1] amounted to 0.000216 ± 0.019; in assay [2], 0.000342 ± 0.0099.

Take “GGAGACCUAUCUAUACAACCUACUAGGAGA [g6:g20:cont:t1A]”: the results for the “pre-steady-state target cleavage rate” value in assay [1] and in assay [2] were 0.00261 ± 0.004 and 0.00306 ± 0.0037, respectively.

On to GGAGACCUAACUAUACAUGCUACUACCUCA, for which the “pre-steady-state target cleavage rate” value turned out to be 0.0788 ± 0.013 in assay [1] and 0.00114 ± 0.0037 in assay [2].

On to GGAGACCUAUCUAUACAACCUAGUACCUGA, for which the “pre-steady-state target cleavage rate” value in assay [1] is 0.00107 ± 0.0053; in assay [2], 0.0027 ± 0.0032.

With GGAGUGGAUACUAUACAACCUAGUACCUGA, the “pre-steady-state target cleavage rate” value in assay [1] amounted to 0.000609 ± 0.0058; in assay [2] it was 0.00271 ± 0.001.

For the sequence “GGAGUGGAUACUAUACAACCUAGAUGGAGA [g9:g26:cont:t1A]”, the “pre-steady-state target cleavage rate” value in assay [1] amounted to 0.000285 ± 0.0085; in assay [2], 0.0017 ± 0.0039.

With GGAGUGGAAACUAUACAACCUACUACGUCA, the “pre-steady-state target cleavage rate” value in assay [1] was 0.0633 ± 0.012; in assay [2] it was 0.00326 ± 0.0026.
